The values that follow come from PMC10600106.

These are yes or no findings as the source states them, for the method shown. In cells and extracts the contact can be indirect. Some binding calls cover weakened binding; strength is not graded here.

For the assay, the target named is T1, Zinc finger protein 281 (ZNF281) (human (endogenous in HLE)) (UniProt Q9Y2X9).
T1 sequence: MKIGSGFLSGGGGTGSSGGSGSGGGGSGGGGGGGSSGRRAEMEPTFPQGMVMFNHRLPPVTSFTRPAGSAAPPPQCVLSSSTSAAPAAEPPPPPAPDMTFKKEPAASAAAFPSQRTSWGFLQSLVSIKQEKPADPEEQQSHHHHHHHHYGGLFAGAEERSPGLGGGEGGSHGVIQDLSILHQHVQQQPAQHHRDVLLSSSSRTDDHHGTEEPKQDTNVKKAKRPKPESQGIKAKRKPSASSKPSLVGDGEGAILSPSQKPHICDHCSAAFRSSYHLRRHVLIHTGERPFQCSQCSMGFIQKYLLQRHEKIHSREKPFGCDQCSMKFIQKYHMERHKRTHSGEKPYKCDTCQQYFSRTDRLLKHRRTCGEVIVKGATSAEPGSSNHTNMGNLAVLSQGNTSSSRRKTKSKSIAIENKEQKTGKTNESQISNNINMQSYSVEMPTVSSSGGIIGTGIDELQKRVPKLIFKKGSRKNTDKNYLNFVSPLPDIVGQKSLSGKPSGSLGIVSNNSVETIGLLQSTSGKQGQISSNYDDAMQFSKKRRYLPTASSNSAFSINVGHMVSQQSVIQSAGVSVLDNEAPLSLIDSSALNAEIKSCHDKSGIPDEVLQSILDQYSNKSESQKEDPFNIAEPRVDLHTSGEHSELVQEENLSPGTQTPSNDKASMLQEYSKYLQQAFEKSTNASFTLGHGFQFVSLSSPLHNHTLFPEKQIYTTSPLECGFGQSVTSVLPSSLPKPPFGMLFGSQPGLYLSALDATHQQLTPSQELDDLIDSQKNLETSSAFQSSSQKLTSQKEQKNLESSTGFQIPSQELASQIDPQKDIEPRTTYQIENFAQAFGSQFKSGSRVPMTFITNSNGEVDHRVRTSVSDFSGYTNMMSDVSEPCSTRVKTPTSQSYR
As to the kind of experiment: co-IP; endogenous proteins from HLE cells in RIPA buffer (50 mM Tris-Cl pH 7.5, 150 mM NaCl, 0.2 mM EDTA, 2% NP-40); precipitated with anti-ZNF281 or control IgG and Protein A/G PLUS-Agarose at 4 °C overnight; immunoblot. In general terms: In western blotting, separated proteins are transferred to a membrane and probed.

B1: nuclear respiratory factor 1 (NRF1) (protein, UniProt Q16656 1-503)
chain: MEEHGVTQTEHMATIEAHAVAQQVQQVHVATYTEHSMLSADEDSPSSPEDTSYDDSDILNSTAADEVTAHLAAAGPVGMAAAAAVATGKKRKRPHVFESNPSIRKRQQTRLLRKLRATLDEYTTRVGQQAIVLCISPSKPNPVFKVFGAAPLENVVRKYKSMILEDLESALAEHAPAPQEVNSELPPLTIDGIPVSVDKMTQAQLRAFIPEMLKYSTGRGKPGWGKESCKPIWWPEDIPWANVRSDVRTEEQKQRVSWTQALRTIVKNCYKQHGREDLLYAFEDQQTQTQATATHSIAHLVPSQTVVQTFSNPDGTVSLIQVGTGATVATLADASELPTTVTVAQVNYSAVADGEVEQNWATLQGGEMTIQTTQASEATQAVASLAEAAVAASQEMQQGATVTMALNSEAAAHAVATLAEATLQGGGQIVLSGETAAAVGALTGVQDANGLVQIPVSMYQTVVTSLAQGNGPVQVAMAPVTTRISDSAVTMDGQAVEVVTLEQ
Consider B1, for which the binding result was “binds”.
